Values quoted from earlier work as cited in US4834982A, “Potassium-neutral salureticum with anti-hypertensive effect” (priority 1987, dated 1989).

Test system: plasma-renin-aldosterone system
Details: well known; cited from earlier work

## NS(=O)(=O)c1cc(C(=O)O)c(NCc2ccco2)cc1Cl [furosemide]
  stimulation of the plasma-renin-aldosterone system: very strongly stimulate
